Measurements reported in PubChem BioAssay AID504807 (Drosophila RNAi Screening Center, 2011).
The reagents shown are a selection, not the whole library. 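All listed dsRNAs looked positive in the first pass but only 20 held up on retesting; weak-to-strong grades are not deposited.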 A plus sign joins genes that one reagent is predicted to hit.

Screen: 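Factors needed for cleavage of pre-mRNA from replication-dependent histone genes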
Cell system: Drosophila Dmel-2 cells
Reagents: long dsRNA against Drosophila genes, 250 ng dsRNA per well
Time to read-out: about 5 days (reporter added on day 3, imaged 2 days later)
Measured: 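Per-well images of a GFP reporter, scored by eye from image collages against nearby wells and a U7 snRNA oligo positive control; hits graded weak, medium or strong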
Active means: 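Wells judged by eye for brighter GFP reporter signal, and only dsRNAs whose increase held up on retesting count as hits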
Calls: active = confirmed hit; inactive = not confirmed

target,outcome
CG32271,inactive
CG34376,inactive
qsm (quasimodo),inactive
fs(1)K10 (female sterile (1) K10),inactive
Alg13 (Alg13 UDP-N-acetylglucosaminyltransferase subunit),inactive
CG14190,inactive
obst-B (obstructor-B),inactive
CG33493,inactive
Gr64b (Gustatory receptor 64b),inactive
CG11110,inactive
Obp93a (Odorant-binding protein 93a),inactive
CG14739,inactive
CkIIalpha-i1 (CKII-alpha subunit interactor-1),active
Cpsf73 (Cleavage and polyadenylation specificity factor 73),active
CG7841,inactive
CG13443,inactive
bun (bunched),inactive
CG6071,inactive
Cpr78Ca (Cuticular protein 78Ca),inactive
CstF50 (Cleavage stimulation factor 50 kD subunit),inactive
CG15375,inactive
CG34056,inactive
Bap170 (Brahma associated protein 170kD),inactive
Cyp312a1 (Cytochrome P450 312a1),inactive
CG31743 + CG34313,inactive
dsx-c73A (doublesex cognate 73A),inactive
Shab (Shaker cognate b),inactive
CG12783,inactive
CG12609,inactive
MBD-R2,active
fh (frataxin),inactive
Usp7 (Ubiquitin-specific protease 7),inactive
Phk-3 (Pherokine 3),inactive
LysC (retired record) + LysD,inactive
Or85a (Odorant receptor 85a),inactive
Tctp (Translationally controlled tumor protein),inactive
flr (flare),inactive
CG43163,inactive
Ca-alpha1T (Ca[2+]-channel protein alpha[[1]] subunit T),inactive
CG11619,inactive
CG14088,inactive
Arp6 (Actin-related protein 6),inactive
aln (allnighter),inactive
Cypl (Cyclophilin-like),inactive
vg (vestigial),inactive
ORMDL (Orosomucoid 1-like),inactive
dpr4 (defective proboscis extension response 4),inactive
gfzf (GST-containing FLYWCH zinc-finger protein),inactive
rush (rush hour),inactive
CG17721,inactive
Or7a (Odorant receptor 7a),inactive
Pgant9 (Polypeptide N-Acetylgalactosaminyltransferase 9),inactive
CG12589,inactive
CG32270 + CG32269,inactive
CG10911,inactive
CG11249,inactive
sdt (stardust),inactive
CG15456,inactive
CG34242,inactive
shep (alan shepard),inactive
CG7886,inactive
Met75Cb + Met75Ca,inactive
"ATPsynbetaL (ATP synthase, beta subunit-like)",inactive
CG3699,inactive
Srpk79D (Serine-arginine protein kinase at 79D),inactive
CG13681 (retired record),inactive
ABCB7 (ATP binding cassette subfamily B member 7),inactive
GstD10 (Glutathione S transferase D10),inactive
Dab (Disabled),inactive
Scp2 (Sarcoplasmic calcium-binding protein 2),inactive
tws (twins),inactive
CG1304,inactive
CG13712,inactive
CG7248,inactive
CG14717,inactive
GstD7 (Glutathione S transferase D7),inactive
CG16775,inactive
CG6576,inactive
CG5611,inactive
Tcs1 + Polr3K,inactive
His2Av (Histone H2A variant),active
LManV (Lysosomal alpha-mannosidase V),inactive
CG31643,inactive
Yeti,active
trh (trachealess),inactive
CG34347,inactive
CG42269,inactive
Pss (Phosphatidylserine synthase),inactive
Aef1 (Adult enhancer factor 1),inactive
CG9686,inactive
CG10949,inactive
FeCH (Ferrochelatase),inactive
SPoCk (Secretory Pathway Calcium atpase),inactive
bol (boule),inactive
Tgs1 + moi,inactive
CG7634,inactive
CycG (Cyclin G),inactive
slow (slowdown),inactive
CG5612,inactive
Ids (Iduronate 2-sulfatase),inactive
rudhira,inactive
Orct2 (Organic cation transporter 2),inactive
Fer1HCH (Ferritin 1 heavy chain homologue),inactive
CG33769,inactive
caz (cabeza),inactive
bon (bonus),inactive
CG1492,inactive
kuz (kuzbanian),inactive
Ae2 (Anion exchanger 2),inactive
obst-F (obstructor-F),inactive
Or67a (Odorant receptor 67a),inactive
yuri (yuri gagarin),inactive
TwdlH (TweedleH),inactive
CG34230,inactive
Tom7 (Translocase of outer membrane 7),inactive
CG13071,inactive
CG17361,active
Rpt4R (Regulatory particle triple-A ATPase 4-related),inactive
CG7639,inactive
CG42512 + CG32573,inactive
Fur1 (Furin 1),inactive
inc (insomniac),inactive
CG33679,inactive
PH4alphaEFB (prolyl-4-hydroxylase-alpha EFB),inactive
trx (trithorax),inactive
CG15450,inactive
Polr1E (RNA polymerase I subunit E),inactive
asf1 (anti-silencing factor 1),active
sgg (shaggy),inactive
Lsm11,active
MED26 (Mediator complex subunit 26),inactive
Ugt37A2 (UDP-glycosyltransferase family 37 member A2),inactive
CG15459,inactive
CG14780,inactive
CG9372,inactive
hppy (happyhour),inactive
CG30089,inactive
Dora (Dorado),inactive
beat-Vb (beaten path Vb),inactive
bab1 (bric a brac 1),inactive
Fit1 (Fermitin 1),inactive
CG42322,inactive
Wdr59 (WD repeat domain 59),inactive
EMC10 (ER membrane protein complex subunit 10),inactive
CG13474,inactive
Tdrd3 (Tudor domain containing 3),inactive
x16 (x16 splicing factor),active
Cpsf100 (Cleavage and polyadenylation specificity factor 100),active
CG15141,inactive
CG10710,inactive
Rcd5 (Reduction in Cnn dots 5),active
CG31183,inactive
sti (sticky),inactive
Rbp6 (RNA-binding protein 6),inactive
Trxr2 (Thioredoxin reductase 2),inactive
Xrp1,inactive
CG7518,inactive

24 consecutive records already listed, for reference:
target,outcome
vg (vestigial),inactive
ORMDL (Orosomucoid 1-like),inactive
dpr4 (defective proboscis extension response 4),inactive
gfzf (GST-containing FLYWCH zinc-finger protein),inactive
rush (rush hour),inactive
CG17721,inactive
Or7a (Odorant receptor 7a),inactive
Pgant9 (Polypeptide N-Acetylgalactosaminyltransferase 9),inactive
CG12589,inactive
CG32270 + CG32269,inactive
CG10911,inactive
CG11249,inactive
sdt (stardust),inactive
CG15456,inactive
CG34242,inactive
shep (alan shepard),inactive
CG7886,inactive
Met75Cb + Met75Ca,inactive
"ATPsynbetaL (ATP synthase, beta subunit-like)",inactive
CG3699,inactive
Srpk79D (Serine-arginine protein kinase at 79D),inactive
CG13681 (retired record),inactive
ABCB7 (ATP binding cassette subfamily B member 7),inactive
GstD10 (Glutathione S transferase D10),inactive
